In US20250375473A1, “Pharmaceutical composition for treating cancer comprising an ionic compound having metal ion binding thereto” (METAFINES.CO.LTD., priority 2018, published 2025):

Test: Clinical Phase 1 trials
Format: in vivo, human

O=C([O-])C(Cl)Cl.O=C1O[C@H]([C@@H](O)CO)C([O-])=C1O.[Ca+2] [Example 1, calcium salts of dichloroacetic acid and ascorbic acid]
maximum dose confirmed in clinical Phase 1 trials, intravenous (intravenous administration): 32.43 mg/kg | maximum dose confirmed in clinical Phase 1 trials, oral (oral administration): 64.86 mg/kg
